Some of these results come from one statement about several compounds together.
System: MRSA with intermediate resistance to glycopeptides
Assay: MIC of vancomycin or teicoplanin for MRSA with intermediate resistance to glycopeptides grown with GBE or NAGly (Table 4)
Format: cell-based, Staphylococcus aureus
Conditions: BTA at 0.001M

**Q.** Which “MICs of vancomycin (VISA) and teicoplanin (TISA) relative to the threshold that defines intermediate resistance” value does the source give for `CC(=O)NCC(=O)O` [NAGly, N-acetylglycine] here?
**A.** < 8 mg/I
